# PubChem BioAssay AID504648 (National Center for Advancing Translational Sciences (NCATS), 2011)
# Among all 390,000 compounds or so, about 610 (0.16%) were called active. The inconclusive results got no clear call from the source; some entries with a clear call stand among them for comparison. Calls come from the whole dose curve; as a rule, active = well fitted inhibition curve with a large enough effect; inconclusive = small, poorly fitted or top-dose-only effect, or effect the other way, or another doubt; inactive = no such curve, though single readings can be large or run the other way. A potency beside an inconclusive call is a rough fit, not a confirmed value.
# Experiment: Nrf2 qHTS screen for inhibitors: counterscreen for cytotoxicity
# Details: A549 ARE-Fluc cells, CellTiter-Fluor viability, 18-24 h; activity change, negative = cytotoxicity: at 46 µM (top of the series)
# Outline: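 A549 ARE_Fluc cells in 5% FBS OPTI-MEM were exposed to compounds in concentration-response for 18-24 h at 37 deg C. Viability was read by CellTiter-Fluor fluorescence (Ex 405/Em 525) after 30 min, before the luciferase read.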
# % is set by controls: 0 for no effect and ±100 for the full control effect; potency is the fitted concentration of half-maximal effect.
SMILES,Potency,"activity change, negative = cytotoxicity"
CCOc1ccc2[nH]c3ncccc3c(=O)c2c1,"inconclusive: 11.6 µM [activator, partial curve, poor fit]",
Cc1cc(NCC2CCCCC2)nc2ccccc12,"inconclusive: 18.4 µM [falling, single point]",
CCOc1cc(/C=C2\SC(=O)N(CC(=O)Nc3ccccc3F)C2=O)cc([N+](=O)[O-])c1O,"inconclusive: 20.6 µM [falling, single point]",
CN(C)S(=O)(=O)c1cccc(NC(=O)c2cccc(S(=O)(=O)N3CCc4ccccc43)c2)c1,,inactive: -11.7%
CCN1CCC(N(Cc2ccc(F)cc2)C(=O)Nc2cc(C)ccc2C)CC1,"inconclusive: 20.6 µM [falling, partial curve, poor fit]",
COc1cccc(C(=O)Nc2sc3c(c2C(=O)O)CCCC3)c1,"inconclusive: 8.2 µM [falling, partial curve]",
COc1ccc2cc(C#N)c(N3CCN(C(=O)c4ccccc4C)CC3)nc2c1,,inactive: -13.3%
Cc1cccc(NC(=O)c2cc(-c3cccnc3)nc3c(C)cccc23)n1,"inconclusive: 32.6 µM [falling, partial curve, poor fit]",
O=C(Nc1cccc(NC(=O)c2cccs2)c1)c1ccc([N+](=O)[O-])o1,,inactive: -9.71%
O=C(Nc1ccc(S(=O)(=O)Nc2ncccn2)cc1)c1cccc(Cl)c1,,inactive: 3.55%
CCOc1ccc(N2C(=O)c3[nH]nc(-c4ccccc4)c3C2c2ccc(O)c(OC)c2)cc1 (stereo not drawn),,inactive: -5.26%
CC(C)c1ccc(-c2c(C#N)c(N)nc(SCC(=O)N3CCCCC3)c2C#N)cc1,"inconclusive: 23.1 µM [falling, single point]",
O=C(CNC(=O)c1ccc2c(c1)OCO2)N/N=C(Br)/C=C/c1ccccc1,"inconclusive: 29.1 µM [falling, single point]",
N#C/C(=N\Nc1ccccc1Cl)C(=O)c1ccccc1,"inconclusive: 20.6 µM [falling, single point]",
C=C1C(=O)OC2C=C(CO)C3OC3C3OC3(C)CC(OC(=O)/C(=C/C)COC(C)=O)C12 (stereo not drawn),"inconclusive: 29.1 µM [falling, single point]",
CCc1noc(C)c1C(=O)OCC(=O)NCc1ccccc1,"inconclusive: 32.6 µM [activator, partial curve, poor fit]",
Cc1ccc(Sc2ccc(N3CCCC(C(=O)Nc4ccc(Cl)cc4)C3)nn2)cc1 (stereo not drawn),,inactive: -13.9%
CC1=C(C(=O)Nc2cccc(C)c2C)C2(CCCCC2)OC1=O,,inactive: -7.7%
Cc1oc2c(C)c(O)ccc2c(=O)c1-c1cnn(-c2ccccc2)c1,,inactive: -8.49%
CC(=O)O/N=C(\N)Cc1ccc(-c2csnn2)cc1,"inconclusive: 23.1 µM [falling, partial curve, poor fit]",
Cc1c(C(=O)Nc2ccc(Br)cc2F)oc2ccc(S(=O)(=O)N3CCCCC3)cc12,,inactive: 6.1%
COC(=O)/C=C1/N/C(=N\c2nc(C)cc(C)n2)N(c2ccccc2)C1=O,,inactive: -1.44%

# Molecules listed so far with a nitro group on carbon (two):
SMILES,Potency,"activity change, negative = cytotoxicity"
CCOc1cc(/C=C2\SC(=O)N(CC(=O)Nc3ccccc3F)C2=O)cc([N+](=O)[O-])c1O,"inconclusive: 20.6 µM [falling, single point]",
O=C(Nc1cccc(NC(=O)c2cccs2)c1)c1ccc([N+](=O)[O-])o1,,inactive: -9.71%

# Next records follow.

SMILES,Potency,"activity change, negative = cytotoxicity"
CC(C)(C)n1ncc2c(=O)n(Cc3cccc(Cn4cnc5c(cnn5C(C)(C)C)c4=O)c3F)cnc21,"inconclusive: 16.4 µM [falling, partial curve, poor fit]",
COCC(C)OC(=O)/C(C#N)=C\c1coc2ccc(C)cc2c1=O (stereo not drawn),,inactive: -3.53%
CC1CCN(CC(=O)N2CCCc3c2c(=O)oc2ccc(OCc4ccccc4)cc32)CC1,"inconclusive: 16.4 µM [falling, partial curve, poor fit]",
Cc1ccc(CCNC(=O)c2cc3c(s2)-c2ccccc2OC3)cc1,"inconclusive: 29.1 µM [falling, single point]",
COc1ccc(-c2cc(-c3nc4ccccn4c3NCc3ccccc3)ccc2OC)cc1,"inconclusive: 18.4 µM [falling, single point]",
N=c1n(CCN2CCCCC2)c2ccccc2n1CC(O)c1ccc(Cl)c(Cl)c1 (stereo not drawn),"inconclusive: 29.1 µM [falling, single point]",
COc1ccc(C[C@@H]2OC3(C=CC(=O)C=C3)O[C@H]2Cc2ccc(OC)cc2)cc1,"inconclusive: 23.1 µM [falling, single point]",
O=C(O)c1cc2ccccc2c(N=Nc2cccnc2)c1O,"inconclusive: 20.6 µM [falling, partial curve, poor fit]",
CC1CC(C)CN(C(=O)c2ccc(-c3ccc([N+](=O)[O-])cc3)o2)C1 (stereo not drawn),,inactive: 0.647%
O=C(C1CCN(S(=O)(=O)c2cnc[nH]2)CC1)N1CCN(c2ccc([N+](=O)[O-])cc2)CC1,"inconclusive: 18.4 µM [falling, partial curve, poor fit]",
O=C(CSc1nnc(-c2cccnc2)o1)Nc1ccccn1,,inactive: -11%
Cc1ccc(NC(=O)C2=CC(c3cccs3)=NS(=O)(=O)N2C)cc1,"inconclusive: 11.6 µM [falling, partial curve, poor fit]",
CC1CCCN(C2=C(Cl)C(=O)N(c3cccc(Cl)c3)C2=O)C1 (stereo not drawn),"inconclusive: 13 µM [falling, partial curve, poor fit]",
O=[N+]([O-])c1cc(Cl)cc(/C=N/Nc2nc3ccccc3s2)c1O,"inconclusive: 20.6 µM [falling, single point]",
N#Cc1ccc[n+](CC(=O)c2ccc(Cl)cc2)c1,"inconclusive: 1.03 µM [activator, full curve, poor fit]",
O=[N+]([O-])c1ccc(/C=N/n2c(C3CCCCC3)n[nH]c2=S)cc1,"inconclusive: 18.4 µM [falling, partial curve, poor fit]",
Cc1cc(/C=C2\SC(=S)NC2=O)c(C)n1-c1ccc(O)cc1,"inconclusive: 29.1 µM [falling, single point]",
Cc1ccccc1Oc1ncnc2oc(-c3ccccc3)cc12,,inactive: 21.7%
CCCCOc1ccc(-c2ncc(N)cn2)cc1,"inconclusive: 11.6 µM [activator, partial curve, poor fit]",
O=C(Nc1cccc(-c2nnc(-c3ccco3)o2)c1)C(c1ccccc1)c1ccccc1,,inactive: -26.3%
O=C(O)c1cc(C2CC2)nc2ccccc12,"inconclusive: 25.9 µM [activator, partial curve, poor fit]",
